Experimental data taken from article PMC8384837.
Changes are numbered by the printed parent chain. The list shows a part of the results. For some assays here: At the low end of the ranking the order means little.

Each sequence was assayed against T1, PUM1 PUF domain R3-THE R4-TFR C935T + R936H + Q939E + N971T + H972F + Q975R (UniProt Q14671). Details: yeast three-hybrid, YBZ-1, SC-Leu-His + 0.5 mM 3-AT, 4 days.
T1 sequence: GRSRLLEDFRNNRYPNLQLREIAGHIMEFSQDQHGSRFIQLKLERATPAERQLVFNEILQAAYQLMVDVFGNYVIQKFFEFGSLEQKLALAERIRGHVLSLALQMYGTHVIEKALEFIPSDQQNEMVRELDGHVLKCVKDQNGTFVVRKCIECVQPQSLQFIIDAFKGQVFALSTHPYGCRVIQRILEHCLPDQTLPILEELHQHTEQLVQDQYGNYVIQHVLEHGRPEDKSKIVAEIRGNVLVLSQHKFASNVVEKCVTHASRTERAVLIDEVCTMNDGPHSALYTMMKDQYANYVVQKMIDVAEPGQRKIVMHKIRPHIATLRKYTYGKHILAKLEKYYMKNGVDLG

| Sequence | binding signal (log2 enrichment (interaction score)) |
| --- | --- |
| GGCUAGAACUAGUGGAUCCCCCGGCGCCCGGCGGCUCGAGCCCGGGUAAGUGCUAGAAGUCUGCAUGCCGCCGGGCGCCAUGCCUGCAGGUCGACUCUAGAAAACAUG | -6.54 |
| GGCUAGAACUAGUGGAUCCCCCGGCGCCCGGCGGCUCGAGCCCGGGUAAGCAUCGGUAGUCUGCAUGCCGCCGGGCGCCAUGCCUGCAGGUCGACUCUAGAAAACAUG | -7.79 |
| GGCUAGAACUAGUGGAUCCCCCGGCGCCCGGCGGCUCGAGCCCGGGUAAGUAUAGCUAGUCUGCAUGCCGCCGGGCGCCAUGCCUGCAGGUCGACUCUAGAAAACAUG | -6.59 |
| GGCUAGAACUAGUGGAUCCCCCGGCGCCCGGCGGCUCGAGCCCGGGUAAGCUGGCGUAGUCUGCAUGCCGCCGGGCGCCAUGCCUGCAGGUCGACUCUAGAAAACAUG | < -8.18 |
| GGCUAGAACUAGUGGAUCCCCCGGCGCCCGGCGGCUCGAGCCCGGGUAAGUGGACGACGUCUGCAUGCCGCCGGGCGCCAUGCCUGCAGGUCGACUCUAGAAAACAUG | -6.72 |
| GGCUAGAACUAGUGGAUCCCCCGGCGCCCGGCGGCUCGAGCCCGGGUAAGUGUAAAUAGUCUGCAUGCCGCCGGGCGCCAUGCCUGCAGGUCGACUCUAGAAAACAUG | -5.42 |
| GGCUAGAACUAGUGGAUCCCCCGGCGCCCGGCGGCUCGAGCCCGGGUAAGUUCAUAUAGUCUGCAUGCCGCCGGGCGCCAUGCCUGCAGGUCGACUCUAGAAAACAUG | -6.76 |
| GGCUAGAACUAGUGGAUCCCCCGGCGCCCGGCGGCUCGAGCCCGGGUAAGUGGACGUAGUCUGCAUGCCGCCGGGCGCCAUGCCUGCAGGUCGACUCUAGAAAACAUG | -6.03 |
| GGCUAGAACUAGUGGAUCCCCCGGCGCCCGGCGGCUCGAGCCCGGGUAAGUUGACGUAGUCUGCAUGCCGCCGGGCGCCAUGCCUGCAGGUCGACUCUAGAAAACAUG | -7.36 |
| GGCUAGAACUAGUGGAUCCCCCGGCGCCCGGCGGCUCGAGCCCGGGUAAGUUGACGACGUCUGCAUGCCGCCGGGCGCCAUGCCUGCAGGUCGACUCUAGAAAACAUG | -7.01 |
| GGCUAGAACUAGUGGAUCCCCCGGCGCCCGGCGGCUCGAGCCCGGGUAAGUGUAAAUUGUCUGCAUGCCGCCGGGCGCCAUGCCUGCAGGUCGACUCUAGAAAACAUG | -6.71 |
| GGCUAGAACUAGUGGAUCCCCCGGCGCCCGGCGGCUCGAGCCCGGGUAAGUGGAGGUAGUCUGCAUGCCGCCGGGCGCCAUGCCUGCAGGUCGACUCUAGAAAACAUG | -6.89 |
| GGCUAGAACUAGUGGAUCCCCCGGCGCCCGGCGGCUCGAGCCCGGGUAAGUUGACGAGGUCUGCAUGCCGCCGGGCGCCAUGCCUGCAGGUCGACUCUAGAAAACAUG | < -5.8 |
| GGCUAGAACUAGUGGAUCCCCCGGCGCCCGGCGGCUCGAGCCCGGGUAAGUGUACGACGUCUGCAUGCCGCCGGGCGCCAUGCCUGCAGGUCGACUCUAGAAAACAUG | -6.97 |
| GGCUAGAACUAGUGGAUCCCCCGGCGCCCGGCGGCUCGAGCCCGGGUAAGUGGAAAUAGUCUGCAUGCCGCCGGGCGCCAUGCCUGCAGGUCGACUCUAGAAAACAUG | -7 |
| GGCUAGAACUAGUGGAUCCCCCGGCGCCCGGCGGCUCGAGCCCGGGUAAGUGAAAAUAGUCUGCAUGCCGCCGGGCGCCAUGCCUGCAGGUCGACUCUAGAAAACAUG | -5.67 |
| GGCUAGAACUAGUGGAUCCCCCGGCGCCCGGCGGCUCGAGCCCGGGUAAGUGGACAUCGUCUGCAUGCCGCCGGGCGCCAUGCCUGCAGGUCGACUCUAGAAAACAUG | -8.52 |
| GGCUAGAACUAGUGGAUCCCCCGGCGCCCGGCGGCUCGAGCCCGGGUAAGUUGAAGUAGUCUGCAUGCCGCCGGGCGCCAUGCCUGCAGGUCGACUCUAGAAAACAUG | -6.83 |
| GGCUAGAACUAGUGGAUCCCCCGGCGCCCGGCGGCUCGAGCCCGGGUAAGUGUAAAUCGUCUGCAUGCCGCCGGGCGCCAUGCCUGCAGGUCGACUCUAGAAAACAUG | -5.81 |

These sequences were tested against T2, PUM1 PUF domain R3-THE R4-TFR R7-NPG C935T + R936H + Q939E + N971T + H972F + Q975R + S1079N + N1080P + E1083G (Homo sapiens) (UniProt Q14671). Details: yeast three-hybrid, YBZ-1, SC-Leu-His + 0.5 mM 3-AT, 4 days.
T2 sequence: T1 sequence with S252N, N253P, E256G

| Sequence | binding signal (log2 enrichment (interaction score)) |
| --- | --- |
| GGCUAGAACUAGUGGAUCCCCCGGCGCCCGGCGGCUCGAGCCCGGGUAAGUUGACGUCGUCUGCAUGCCGCCGGGCGCCAUGCCUGCAGGUCGACUCUAGAAAACAUG | -1.79 |
| GGCUAGAACUAGUGGAUCCCCCGGCGCCCGGCGGCUCGAGCCCGGGUAAGUGGAAGAUGUCUGCAUGCCGCCGGGCGCCAUGCCUGCAGGUCGACUCUAGAAAACAUG | -1.74 |
| GGCUAGAACUAGUGGAUCCCCCGGCGCCCGGCGGCUCGAGCCCGGGUAAGUUUAAAUAGUCUGCAUGCCGCCGGGCGCCAUGCCUGCAGGUCGACUCUAGAAAACAUG | -1.92 |
| GGCUAGAACUAGUGGAUCCCCCGGCGCCCGGCGGCUCGAGCCCGGGUAAGUGUAAAUGGUCUGCAUGCCGCCGGGCGCCAUGCCUGCAGGUCGACUCUAGAAAACAUG | -1.65 |
| GGCUAGAACUAGUGGAUCCCCCGGCGCCCGGCGGCUCGAGCCCGGGUAAGUUGGAUCAGUCUGCAUGCCGCCGGGCGCCAUGCCUGCAGGUCGACUCUAGAAAACAUG | -1.58 |
| GGCUAGAACUAGUGGAUCCCCCGGCGCCCGGCGGCUCGAGCCCGGGUAAGUGGACGACGUCUGCAUGCCGCCGGGCGCCAUGCCUGCAGGUCGACUCUAGAAAACAUG | -1.68 |
| GGCUAGAACUAGUGGAUCCCCCGGCGCCCGGCGGCUCGAGCCCGGGUAAGUGUAAAUAGUCUGCAUGCCGCCGGGCGCCAUGCCUGCAGGUCGACUCUAGAAAACAUG | -1.76 |
| GGCUAGAACUAGUGGAUCCCCCGGCGCCCGGCGGCUCGAGCCCGGGUAAGUGGACGUAGUCUGCAUGCCGCCGGGCGCCAUGCCUGCAGGUCGACUCUAGAAAACAUG | -1.65 |
| GGCUAGAACUAGUGGAUCCCCCGGCGCCCGGCGGCUCGAGCCCGGGUAAGCUCUAAUUGUCUGCAUGCCGCCGGGCGCCAUGCCUGCAGGUCGACUCUAGAAAACAUG | < -1.74 |
| GGCUAGAACUAGUGGAUCCCCCGGCGCCCGGCGGCUCGAGCCCGGGUAAGUUGACGUAGUCUGCAUGCCGCCGGGCGCCAUGCCUGCAGGUCGACUCUAGAAAACAUG | -1.66 |
| GGCUAGAACUAGUGGAUCCCCCGGCGCCCGGCGGCUCGAGCCCGGGUAAGUUGACGACGUCUGCAUGCCGCCGGGCGCCAUGCCUGCAGGUCGACUCUAGAAAACAUG | -1.74 |
| GGCUAGAACUAGUGGAUCCCCCGGCGCCCGGCGGCUCGAGCCCGGGUAAGUGUAAAUUGUCUGCAUGCCGCCGGGCGCCAUGCCUGCAGGUCGACUCUAGAAAACAUG | -1.25 |
| GGCUAGAACUAGUGGAUCCCCCGGCGCCCGGCGGCUCGAGCCCGGGUAAGUGGAGGUAGUCUGCAUGCCGCCGGGCGCCAUGCCUGCAGGUCGACUCUAGAAAACAUG | < -1.96 |
| GGCUAGAACUAGUGGAUCCCCCGGCGCCCGGCGGCUCGAGCCCGGGUAAGUUGACGAGGUCUGCAUGCCGCCGGGCGCCAUGCCUGCAGGUCGACUCUAGAAAACAUG | -1.06 |
| GGCUAGAACUAGUGGAUCCCCCGGCGCCCGGCGGCUCGAGCCCGGGUAAGUGUACGACGUCUGCAUGCCGCCGGGCGCCAUGCCUGCAGGUCGACUCUAGAAAACAUG | -1.72 |
| GGCUAGAACUAGUGGAUCCCCCGGCGCCCGGCGGCUCGAGCCCGGGUAAGUGGAAAUAGUCUGCAUGCCGCCGGGCGCCAUGCCUGCAGGUCGACUCUAGAAAACAUG | -1.74 |
| GGCUAGAACUAGUGGAUCCCCCGGCGCCCGGCGGCUCGAGCCCGGGUAAGUGGACAUCGUCUGCAUGCCGCCGGGCGCCAUGCCUGCAGGUCGACUCUAGAAAACAUG | < -1.61 |
| GGCUAGAACUAGUGGAUCCCCCGGCGCCCGGCGGCUCGAGCCCGGGUAAGUUGAAGUAGUCUGCAUGCCGCCGGGCGCCAUGCCUGCAGGUCGACUCUAGAAAACAUG | -1.91 |
| GGCUAGAACUAGUGGAUCCCCCGGCGCCCGGCGGCUCGAGCCCGGGUAAGUGUAAAUCGUCUGCAUGCCGCCGGGCGCCAUGCCUGCAGGUCGACUCUAGAAAACAUG | -1.17 |
